Our source for the IC50 values is ChEMBL document CHEMBL3526101, “Discovery and characterization of novel, potent, and selective cytochrome P450 2J2 inhibitors” (Drug Metab Dispos, 2013).

For the experiment, the target named is T1, Cytochrome P450 2J2 (Homo sapiens, UniProt P51589).
T1 sequence (P51589 whole entry): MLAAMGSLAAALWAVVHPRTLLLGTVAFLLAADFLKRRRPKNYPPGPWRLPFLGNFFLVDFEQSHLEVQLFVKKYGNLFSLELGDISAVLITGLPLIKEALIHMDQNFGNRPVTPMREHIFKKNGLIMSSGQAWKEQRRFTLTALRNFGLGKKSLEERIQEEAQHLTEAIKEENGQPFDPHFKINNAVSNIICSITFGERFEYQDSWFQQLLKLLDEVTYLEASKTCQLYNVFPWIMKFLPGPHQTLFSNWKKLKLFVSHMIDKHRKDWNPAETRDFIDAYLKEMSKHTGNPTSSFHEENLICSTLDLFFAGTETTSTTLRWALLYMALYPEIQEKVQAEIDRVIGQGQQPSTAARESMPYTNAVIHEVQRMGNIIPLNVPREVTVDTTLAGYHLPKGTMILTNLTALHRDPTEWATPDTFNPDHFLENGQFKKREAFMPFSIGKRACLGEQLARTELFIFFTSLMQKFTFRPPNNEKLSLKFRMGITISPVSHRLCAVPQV

Broadly, the IC50 is the point on the concentration scale where inhibition reaches its midpoint. Compound `CC(C)(C(=O)O)c1ccc(C(O)CCCN2CCC(C(O)(c3ccccc3)c3ccccc3)CC2)cc1` (configuration not stated) [FEXOFENADINE] showed an IC50 of over 50 µM.

`NS(=O)(=O)c1cc(C(=O)O)c(NCc2ccco2)cc1Cl` [FUROSEMIDE]: the IC50 was over 50 µM.
